PubChem BioAssay AID1259405 – NCATS – 2018
Aim: 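Mouse-designed siRNAs used to find CHO productivity engineering targets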 (primary screen). System: Chinese hamster CHO-K1 ovary cells with stable secreted eGFP expression. Reagents: single siRNA against mouse genes, 0.8 pmol siRNA per well (2 µl of 400 nM stock). Time to read-out: 3 days. Detection: 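Percent of the per-plate non-targeting control median for intracellular GFP per well by laser scanning cytometry and for cell viability by ATP luminescence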. Reading the numbers: GFP, % of control: higher = more GFP per well, higher productivity; viability (ATP), % of control: higher = more viable cells (more ATP). Hit rule: 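Called active when intracellular GFP, relative to negative control, is at or above 120%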.
Here is one part, drawn at random, of about 50,000 deposited reagents. About 4,000 of all reagents (8%) count as active. 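Mouse siRNA library applied to hamster cells; one well for each siRNA.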 A number with no mark means an inactive call. Reagents against one gene are numbered here. No sequences are given here.

gene knocked down | reagent | GFP, % of control | viability (ATP), % of control
Syt15 (synaptotagmin XV) | 1 | 85.4 | 94.4
Syt15 (synaptotagmin XV) | 2 | 100 | 90.2
F730035P03Rik (RIKEN cDNA F730035P03 gene) | 1 | 34.8 | 46.2
F730035P03Rik (RIKEN cDNA F730035P03 gene) | 2 | 80.1 | 94.8
F730035P03Rik (RIKEN cDNA F730035P03 gene) | 3 | 97.4 | 98.4
Atp6v1e1 (ATPase, H+ transporting, lysosomal V1 subunit E1) | 1 | 133 (active) | 109
Atp6v1e1 (ATPase, H+ transporting, lysosomal V1 subunit E1) | 2 | 70.7 | 79.2
Atp6v1e1 (ATPase, H+ transporting, lysosomal V1 subunit E1) | 3 | 64.2 | 47.9
St3gal4 (ST3 beta-galactoside alpha-2,3-sialyltransferase 4) | 1 | 74.8 | 112
St3gal4 (ST3 beta-galactoside alpha-2,3-sialyltransferase 4) | 2 | 115 | 102
St3gal4 (ST3 beta-galactoside alpha-2,3-sialyltransferase 4) | 3 | 91.2 | 123
Slamf1 (signaling lymphocytic activation molecule family member 1) | 1 | 83.2 | 51.7
Slamf1 (signaling lymphocytic activation molecule family member 1) | 2 | 47.9 | 36.8
Slamf1 (signaling lymphocytic activation molecule family member 1) | 3 | 79.1 | 65.4
Gpr171 (G protein-coupled receptor 171) | 1 | 114 | 68.1
Gpr171 (G protein-coupled receptor 171) | 2 | 63.3 | 47.5
Gpr171 (G protein-coupled receptor 171) | 3 | 96.5 | 71.8
Slc45a2 | 1 | 54.9 | 44.5
Slc45a2 | 2 | 86.9 | 55.8
Slc45a2 | 3 | 121 (active) | 103
Adrm1 | 1 | 58.6 | 62.9
Adrm1 | 2 | 62.3 | 42.9
Adrm1 | 3 | 81.4 | 76.8
Mrtfb (myocardin related transcription factor B) | 1 | 60 | 76.8
Mrtfb (myocardin related transcription factor B) | 2 | 93.6 | 97.2
Mrtfb (myocardin related transcription factor B) | 3 | 98.8 | 87.5
Mrtfb (myocardin related transcription factor B) | 4 | 86 | 84.7
Mrtfb (myocardin related transcription factor B) | 5 | 61.7 | 64.9
Mrtfb (myocardin related transcription factor B) | 6 | 72.3 | 96.2
Myt1 (myelin transcription factor 1) | 1 | 59.1 | 56.4
Myt1 (myelin transcription factor 1) | 2 | 41.9 | 70.2
Myt1 (myelin transcription factor 1) | 3 | 83.8 | 98.3
Tnnt3 (troponin T3, skeletal, fast) | 1 | 76.2 | 63.5
Tnnt3 (troponin T3, skeletal, fast) | 2 | 66.3 | 57.6
Tnnt3 (troponin T3, skeletal, fast) | 3 | 69.9 | 77.8
Sik1 (salt inducible kinase 1) | 1 | 79.8 | 61
Lrrc8e (leucine rich repeat containing 8 family, member E) | 1 | 84.7 | 87.3
Lrrc8e (leucine rich repeat containing 8 family, member E) | 2 | 49.2 | 62.9
Lrrc8e (leucine rich repeat containing 8 family, member E) | 3 | 60.6 | 72.4
Nudt15 (nudix hydrolase 15) | 1 | 144 (active) | 79
Nudt15 (nudix hydrolase 15) | 2 | 89.9 | 87.6
Nudt15 (nudix hydrolase 15) | 3 | 68.1 | 73.7
Sp140l2 (Sp140 nuclear body protein like 2) | 1 | 44.6 | 61.1
Sp140l2 (Sp140 nuclear body protein like 2) | 2 | 127 (active) | 78.6
Sp140l2 (Sp140 nuclear body protein like 2) | 3 | 170 (active) | 116
Dnaaf6 (dynein axonemal assembly factor 6) | 1 | 73.7 | 84.1
Dnaaf6 (dynein axonemal assembly factor 6) | 2 | 87.7 | 107
Dnaaf6 (dynein axonemal assembly factor 6) | 3 | 104 | 101
Abcf2 (ATP-binding cassette, sub-family F member 2) | 1 | 70.3 | 78.1
Abcf2 (ATP-binding cassette, sub-family F member 2) | 2 | 14.4 | 15.3
Abcf2 (ATP-binding cassette, sub-family F member 2) | 3 | 59.5 | 73
Epcip (exosomal polycystin 1 interacting protein) | 1 | 107 | 122
Epcip (exosomal polycystin 1 interacting protein) | 2 | 105 | 70.7
Epcip (exosomal polycystin 1 interacting protein) | 3 | 77.5 | 82.4
Ca9 (carbonic anhydrase 9) | 1 | 122 (active) | 102
Ca9 (carbonic anhydrase 9) | 2 | 76.7 | 66.8
Wdr62 (WD repeat domain 62) | 1 | 44.6 | 75.3
Wdr62 (WD repeat domain 62) | 2 | 44.8 | 39.6
Wdr62 (WD repeat domain 62) | 3 | 49.8 | 76.3
Marcksl1 (MARCKS-like 1) | 1 | 142 (active) | 89.4
Marcksl1 (MARCKS-like 1) | 2 | 124 (active) | 68.4
Marcksl1 (MARCKS-like 1) | 3 | 31 | 35.9
Txndc11 (thioredoxin domain containing 11) | 1 | 43.4 | 109
Txndc11 (thioredoxin domain containing 11) | 2 | 62.5 | 69.3
Txndc11 (thioredoxin domain containing 11) | 3 | 56.4 | 61
Twnk (twinkle mtDNA helicase) | 1 | 38 | 38
Twnk (twinkle mtDNA helicase) | 2 | 129 (active) | 81.6
Twnk (twinkle mtDNA helicase) | 3 | 48.2 | 60.7
Awat2 (acyl-CoA wax alcohol acyltransferase 2) | 1 | 89.5 | 66.2
Awat2 (acyl-CoA wax alcohol acyltransferase 2) | 2 | 63.1 | 53.6
Awat2 (acyl-CoA wax alcohol acyltransferase 2) | 3 | 71.7 | 46.5
Mcm8 | 1 | 118 | 129
Mcm8 | 2 | 83.2 | 49.9
Mcm8 | 3 | 22.4 | 73.1
Cimap1a (ciliary microtubule associated protein 1A) | 1 | 116 | 83.6
Cimap1a (ciliary microtubule associated protein 1A) | 2 | 93 | 110
Cimap1a (ciliary microtubule associated protein 1A) | 3 | 94.7 | 71.3
Slc61a1 | 1 | 157 (active) | 85
Slc61a1 | 2 | 87.5 | 85.9
Calm2 (calmodulin 2) | 1 | 93.7 | 120
Calm2 (calmodulin 2) | 2 | 93.7 | 90.4
Stk32b (serine/threonine kinase 32B) | 1 | 63.8 | 48.8
Or7g34 (olfactory receptor family 7 subfamily G member 34) | 1 | 93.9 | 89.8
Or7g34 (olfactory receptor family 7 subfamily G member 34) | 2 | 26.2 | 17.5
Or7g34 (olfactory receptor family 7 subfamily G member 34) | 3 | 91.5 | 99.7

Reagents listed so far with an active call, once more:
gene knocked down | reagent | GFP, % of control | viability (ATP), % of control
Atp6v1e1 (ATPase, H+ transporting, lysosomal V1 subunit E1) | 1 | 133 (active) | 109
Slc45a2 | 3 | 121 (active) | 103
Nudt15 (nudix hydrolase 15) | 1 | 144 (active) | 79
Sp140l2 (Sp140 nuclear body protein like 2) | 2 | 127 (active) | 78.6
Sp140l2 (Sp140 nuclear body protein like 2) | 3 | 170 (active) | 116
Ca9 (carbonic anhydrase 9) | 1 | 122 (active) | 102
Marcksl1 (MARCKS-like 1) | 1 | 142 (active) | 89.4
Marcksl1 (MARCKS-like 1) | 2 | 124 (active) | 68.4
Twnk (twinkle mtDNA helicase) | 2 | 129 (active) | 81.6
Slc61a1 | 1 | 157 (active) | 85
